Values quoted from earlier work, collected in US20050203169A1, “Methods and compositions for treating diseases associated with excesses in ACE” (priority 2001, published 2005).
Some results were stated once for a whole list of compounds, not compound by compound.

Conditions: cited from earlier work; for time to peak serum concentration: current formulation, parent drug or de-esterified form

Row | SMILES | time to peak serum concentration | effective half-life (in vivo)
1 | CCOC(=O)[C@H](CCc1ccccc1)N[C@@H](C)C(=O)N1Cc2ccccc2C[C@H]1C(=O)O [quinapril] | < 1 h | 
2 | C[C@H](N[C@@H](CCc1ccccc1)C(=O)O)C(=O)N1[C@H](C(=O)O)C[C@@H]2CCC[C@@H]21 [ramiprilat] | 2 to 4 h | 
3 | C[C@H](N[C@@H](CCc1ccccc1)C(=O)O)C(=O)N1Cc2ccccc2C[C@H]1C(=O)O [quinaprilat] | 2 to 4 h | 
4 | CCOC(=O)[C@H](CCc1ccccc1)N[C@@H](C)C(=O)N1CCC[C@H]1C(=O)O [enalapril] |  | 4 to 6 h
5 | CCOC(=O)[C@H](CCc1ccccc1)N[C@@H](C)C(=O)N1[C@H](C(=O)O)C[C@@H]2CCC[C@@H]21 [ramipril] | < 1 h | 
